In PubChem BioAssay AID270 (DTP/NCI, 2004):
The list does not hold the whole screen: it is rich in T/C values a quarter to a half above the control, in often repeated tests (any T/C) and in doses without a T/C. Other doses and runs of a compound stand elsewhere. T/C: endpoint of the treated group in % of that of the vehicle group. Schedules are NCI's codes, read here as Q, the interval in days (D) or hours (H), X, the number of doses. Some T/C values carry the count of animals alive at the toxicity check (mostly the fifth day); without a count, all were alive then. Some entries give survivors of the animals treated and no T/C: the source files T/C as zero there, which appears to mark a toxic dose or a test without result, not a measured value. Some doses without a T/C left all or most animals alive at the check, yet need not have been tolerated: survival well below the control is almost never listed, so the zero probably covers shortened survival too. Counts of survivors are from the toxicity check (mostly the fifth day) where no day follows; animals may have died later. Some doses were run more than once; the results are listed from low to high. Additions like (4×) stand for listed records that agree. For survival time, the PubChem record calls one and a half times the control and up active, and a quarter to a half above the control has no call in these data; cut-offs in other NCI protocols can differ.

System: BDF1 mice, s.c. Lewis lung carcinoma, T/C %
Experiment: NCI In Vivo Anticancer Drug Screen. Data for tumor model Lewis Lung Carcinoma (subcutaneous) in B6D2F1 (BDF1) mice
How it was run: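 Transplanted tumors grown in mice; compound vs vehicle dosing; endpoint survival or tumor size; ratio T/C.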

[1] = T/C endpoint: mean tumor weight, dose: 25.0 mg/kg/injection, schedule: Q01DX011 (ip), vehicle: saline, evaluated on day 12, higher T/C = larger tumour
[2] = T/C endpoint: mean tumor weight, dose: 400.0 mg/kg/injection, schedule: Q01DX011 (ip), vehicle: other, higher T/C = larger tumour

## COC12C(COC(N)=O)C3=C(C(=O)C(C)=C(N)C3=O)N1CC1C2N1C (stereo not given)
T/C endpoint: median survival time, dose: 8.0 mg/kg/injection, schedule: Q01DX011 (ip), vehicle: other, higher T/C = longer survival
  survivor count: 8 of 10
T/C endpoint: median survival time, dose: 16.0 mg/kg/injection, schedule: Q01DX011 (ip), vehicle: other, higher T/C = longer survival
  survivor count: 3 of 10
T/C endpoint: median survival time, dose: 32.0 mg/kg/injection, schedule: Q01DX011 (ip), vehicle: other, higher T/C = longer survival
  survivor count: 0 of 10

## O=C1C2C3C=CC(C3)C2C(=O)N1c1nccs1 (stereo not given)
T/C endpoint: mean tumor weight, dose: 400.0 mg/kg/injection, schedule: Q01DX011 (ip), vehicle: carboxymethylcellulose (CMC), higher T/C = larger tumour
  survivor count: 3 of 6

## CN1C2CCC1CC(OC(=O)C(CO)c1ccccc1)C2 (stereo not given)
[1]
  T/C: 134 % of control [5 of 6 alive]

## Clc1cccc(Br)c1
T/C endpoint: mean tumor weight, dose: 118.0 mg/kg/injection, schedule: Q01DX011 (ip), vehicle: other, higher T/C = larger tumour
  survivor count: 1 of 6
T/C endpoint: mean tumor weight, dose: 178.0 mg/kg/injection, schedule: Q01DX011 (ip), vehicle: other, higher T/C = larger tumour
  survivor count: 0 of 6
T/C endpoint: mean tumor weight, dose: 266.0 mg/kg/injection, schedule: Q01DX011 (ip), vehicle: other, higher T/C = larger tumour
  survivor count: 1 of 6
[2]
  survivor count: 0 of 6

## Cc1nnc(N)s1
T/C endpoint: mean tumor weight, dose: 450.0 mg/kg/injection, schedule: Q01DX011 (ip), vehicle: other, higher T/C = larger tumour
  survivor count: 0 of 6

## C=COCC(C)C (tested in a mixture with another compound)
T/C endpoint: median survival time, dose: 10.0 mg/kg/injection, schedule: Q01DX009 (ip), vehicle: other, higher T/C = longer survival
  survivor count: 5 of 10
T/C endpoint: median survival time, dose: 18.75 mg/kg/injection, schedule: Q01DX009 (ip), vehicle: other, higher T/C = longer survival
  survivor count: 1 of 10
T/C endpoint: median survival time, dose: 37.5 mg/kg/injection, schedule: Q01DX009 (ip), vehicle: other, higher T/C = longer survival
  survivor count: 0 of 10
T/C endpoint: median survival time, dose: 75.0 mg/kg/injection, schedule: Q01DX009 (ip), vehicle: other, higher T/C = longer survival
  survivor count: 0 of 10
T/C endpoint: median survival time, dose: 150.0 mg/kg/injection, schedule: Q01DX009 (ip), vehicle: other, higher T/C = longer survival
  survivor count: 0 of 10

## CCCCCC[C@H]([C@H](C)O)n1cnc2c(N)ncnc21
T/C endpoint: median survival time, dose: 200.0 mg/kg/injection, schedule: Q01DX009 (ip), vehicle: Klucel (hydroxypropylcellulose) (HPC), higher T/C = longer survival
  survivor count: 3 of 10

## CCC1(O)CC(OC2CC(N(C)C)C(OC3CC(O)C(OC4CCC(=O)C(C)O4)C(C)O3)C(C)O2)c2c(cc3c(c2O)C(=O)c2c(O)ccc(O)c2C3=O)C1C(=O)OC (stereo not given)
T/C endpoint: median survival time, dose: 0.47 mg/kg/injection, schedule: Q01DX009 (ip), vehicle: saline with Tween-80, higher T/C = longer survival
  T/C: 126 % of control
T/C endpoint: median survival time, dose: 0.95 mg/kg/injection, schedule: Q01DX009 (ip), vehicle: saline with Tween-80, higher T/C = longer survival
  T/C: 138 % of control
T/C endpoint: median survival time, dose: 1.9 mg/kg/injection, schedule: Q01DX009 (ip), vehicle: saline with Tween-80, higher T/C = longer survival
  survivor count: 10 of 10
T/C endpoint: median survival time, dose: 3.75 mg/kg/injection, schedule: Q01DX009 (ip), vehicle: saline with Tween-80, higher T/C = longer survival
  survivor count: 8 of 10
T/C endpoint: median survival time, dose: 7.5 mg/kg/injection, schedule: Q01DX009 (ip), vehicle: saline with Tween-80, higher T/C = longer survival
  survivor count: 7 of 10
T/C endpoint: median survival time, dose: 15.0 mg/kg/injection, schedule: Q01DX009 (ip), vehicle: saline with Tween-80, higher T/C = longer survival
  survivor count: 0 of 10

## CC[CH2][Pb]([CH2]CC)([CH2]CC)[O]C(=O)C(Cl)(Cl)Cl
T/C endpoint: median survival time, dose: 0.75 mg/kg/injection, schedule: Q01DX009 (ip), vehicle: saline with Tween-80, higher T/C = longer survival
  survivor count: 10 of 10

## COC(=O)C[C@](O)(CCC(C)(C)O)C(=O)O[C@@H]1C(OC)=C[C@]23CCCN2CCc2cc4c(cc2[C@H]13)OCO4
T/C endpoint: mean tumor weight, dose: 1.0 mg/kg/injection, schedule: Q01DX011 (ip), vehicle: saline, evaluated on day 12, higher T/C = larger tumour
  T/C: 130 % of control [8 of 10 alive]
T/C endpoint: mean tumor weight, dose: 4.0 mg/kg/injection, schedule: Q01DX011 (ip), vehicle: saline, higher T/C = larger tumour
  survivor count: 4 of 10

## CCC[C@H]1CCCCN1
T/C endpoint: mean tumor weight, dose: 50.0 mg/kg/injection, schedule: Q01DX011 (ip), vehicle: saline, higher T/C = larger tumour
  survivor count: 2 of 6
T/C endpoint: mean tumor weight, dose: 100.0 mg/kg/injection, schedule: Q01DX011 (ip), vehicle: saline, higher T/C = larger tumour
  survivor count: 0 of 6
T/C endpoint: mean tumor weight, dose: 200.0 mg/kg/injection, schedule: Q01DX011 (ip), vehicle: saline, higher T/C = larger tumour
  survivor count: 0 of 6

## CC(C)NCC(O)COc1cccc2ccccc12 (stereo not given)
T/C endpoint: median survival time, dose: 4.0 mg/kg/injection, schedule: Q01DX009 (ip), vehicle: Klucel (hydroxypropylcellulose) (HPC), evaluated on day 45, higher T/C = longer survival
  T/C: 127 % of control [9 of 10 alive]
T/C endpoint: median survival time, dose: 4.0 mg/kg/injection, schedule: Q01DX009 (ip), vehicle: Klucel (hydroxypropylcellulose) (HPC), evaluated on day 60, higher T/C = longer survival
  T/C: 92, 98, 100, 102 % of control
T/C endpoint: median survival time, dose: 8.0 mg/kg/injection, schedule: Q01DX009 (ip), vehicle: Klucel (hydroxypropylcellulose) (HPC), evaluated on day 5, higher T/C = longer survival
  T/C: 100 % of control
T/C endpoint: median survival time, dose: 8.0 mg/kg/injection, schedule: Q01DX009 (ip), vehicle: Klucel (hydroxypropylcellulose) (HPC), evaluated on day 45, higher T/C = longer survival
  T/C: 121 % of control
T/C endpoint: median survival time, dose: 8.0 mg/kg/injection, schedule: Q01DX009 (ip), vehicle: Klucel (hydroxypropylcellulose) (HPC), evaluated on day 60, higher T/C = longer survival
  T/C: 89, 93, 95, 102 % of control
T/C endpoint: median survival time, dose: 16.0 mg/kg/injection, schedule: Q01DX009 (ip), vehicle: Klucel (hydroxypropylcellulose) (HPC), evaluated on day 5, higher T/C = longer survival
  T/C: 104 % of control
T/C endpoint: median survival time, dose: 16.0 mg/kg/injection, schedule: Q01DX009 (ip), vehicle: Klucel (hydroxypropylcellulose) (HPC), evaluated on day 45, higher T/C = longer survival
  T/C: 114 % of control
T/C endpoint: median survival time, dose: 16.0 mg/kg/injection, schedule: Q01DX009 (ip), vehicle: Klucel (hydroxypropylcellulose) (HPC), evaluated on day 60, higher T/C = longer survival
  T/C: 94 [9 of 10 alive], 100, 112 % of control
T/C endpoint: median survival time, dose: 32.0 mg/kg/injection, schedule: Q01DX009 (ip), vehicle: Klucel (hydroxypropylcellulose) (HPC), evaluated on day 5, higher T/C = longer survival
  T/C: 126 % of control
T/C endpoint: median survival time, dose: 32.0 mg/kg/injection, schedule: Q01DX009 (ip), vehicle: Klucel (hydroxypropylcellulose) (HPC), evaluated on day 45, higher T/C = longer survival
  T/C: 140 % of control
T/C endpoint: median survival time, dose: 32.0 mg/kg/injection, schedule: Q01DX009 (ip), vehicle: Klucel (hydroxypropylcellulose) (HPC), evaluated on day 60, higher T/C = longer survival
  T/C: 96 [8 of 10 alive], 103, 113, 149 % of control
T/C endpoint: median survival time, dose: 64.0 mg/kg/injection, schedule: Q01DX009 (ip), vehicle: Klucel (hydroxypropylcellulose) (HPC), evaluated on day 5, higher T/C = longer survival
  T/C: 92 % of control
T/C endpoint: median survival time, dose: 64.0 mg/kg/injection, schedule: Q01DX009 (ip), vehicle: Klucel (hydroxypropylcellulose) (HPC), evaluated on day 45, higher T/C = longer survival
  T/C: 93 % of control
T/C endpoint: median survival time, dose: 64.0 mg/kg/injection, schedule: Q01DX009 (ip), vehicle: Klucel (hydroxypropylcellulose) (HPC), evaluated on day 60, higher T/C = longer survival
  T/C: 93, 100, 106, 120 % of control
T/C endpoint: median survival time, dose: 128.0 mg/kg/injection, schedule: Q01DX009 (ip), vehicle: Klucel (hydroxypropylcellulose) (HPC), higher T/C = longer survival
  survivor count: 0 of 10 (2×), 1 of 10, 4 of 10
T/C endpoint: median survival time, dose: 128.0 mg/kg/injection, schedule: Q02DX009 (ip), vehicle: Klucel (hydroxypropylcellulose) (HPC), higher T/C = longer survival
  survivor count: 3 of 10

## COc1cccc(/C=N/C(=S)NC2(C)C3CCC(C3)C2(C)C)c1O (stereo not given)
T/C endpoint: median survival time, dose: 25.0 mg/kg/injection, schedule: Q01DX009 (ip), vehicle: olive oil, sesame oil, peanut oil, higher T/C = longer survival
  survivor count: 10 of 10
T/C endpoint: median survival time, dose: 50.0 mg/kg/injection, schedule: Q01DX009 (ip), vehicle: olive oil, sesame oil, peanut oil, higher T/C = longer survival
  survivor count: 10 of 10
T/C endpoint: median survival time, dose: 200.0 mg/kg/injection, schedule: Q01DX009 (ip), vehicle: olive oil, sesame oil, peanut oil, higher T/C = longer survival
  survivor count: 10 of 10

## Nc1ccc(OC(=O)Oc2ccc(N)cc2)cc1
T/C endpoint: mean tumor weight, dose: 250.0 mg/kg/injection, schedule: Q01DX011 (ip), vehicle: saline, higher T/C = larger tumour
  survivor count: 0 of 6
T/C endpoint: mean tumor weight, dose: 500.0 mg/kg/injection, schedule: Q01DX011 (ip), vehicle: saline, higher T/C = larger tumour
  survivor count: 0 of 6

## Nc1ncnc2c1ncn2C1CCCO1 (stereo not given)
[2]
  survivor count: 0 of 6

## NC(N)=Nc1nc2ccccc2s1
T/C endpoint: mean tumor weight, dose: 6.25 mg/kg/injection, schedule: Q01DX011 (ip), vehicle: saline, evaluated on day 12, higher T/C = larger tumour
  T/C: 129 % of control
T/C endpoint: mean tumor weight, dose: 12.5 mg/kg/injection, schedule: Q01DX011 (ip), vehicle: saline, higher T/C = larger tumour
  survivor count: 0 of 6
[1]
  T/C: 136 % of control

## O=C(O)C1(NO)CCCC1
T/C endpoint: mean tumor weight, dose: 188.0 mg/kg/injection, schedule: Q01DX011 (ip), vehicle: saline, higher T/C = larger tumour
  survivor count: 1 of 6

## CCN(CC)CCNc1ccc([N+](=O)[O-])c2sc3ccccc3c(=O)c12
T/C endpoint: mean tumor weight, dose: 100.0 mg/kg/injection, schedule: Q01DX011 (ip), vehicle: other, higher T/C = larger tumour
  survivor count: 1 of 6

## Cc1c2ccncc2c(C)c2c1[nH]c1ccccc12
T/C endpoint: median survival time, dose: 18.75 mg/kg/injection, schedule: Q04DX003 (ip), vehicle: saline with Tween-80, higher T/C = longer survival
  T/C: 129 % of control
T/C endpoint: median survival time, dose: 150.0 mg/kg/injection, schedule: Q04DX003 (ip), vehicle: saline with Tween-80, higher T/C = longer survival
  survivor count: 10 of 10

## NC(Cc1cc(I)c(Oc2ccc(O)c(I)c2)c(I)c1)C(=O)O (stereo not given)
T/C endpoint: mean tumor weight, dose: 50.0 micrograms/kg/injection, schedule: Q01DX011 (ip), vehicle: saline, evaluated on day 12, higher T/C = larger tumour
  T/C: 144 % of control

## NC(=O)c1ccc(NC(=O)CCC(=O)Nc2ccc(C(N)=O)cn2)nc1
T/C endpoint: mean tumor weight, dose: 5.0 mg/kg/injection, schedule: Q01DX011 (ip), vehicle: carboxymethylcellulose (CMC), higher T/C = larger tumour
  survivor count: 0 of 7
T/C endpoint: mean tumor weight, dose: 10.0 mg/kg/injection, schedule: Q01DX011 (ip), vehicle: carboxymethylcellulose (CMC), higher T/C = larger tumour
  survivor count: 0 of 7
